Data as given in PubChem BioAssay AID504774 (Drosophila RNAi Screening Center, 2011).
The screen tested about 23,000 reagents; shown is an unselected part of those with a known target gene and a result. 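Values are quantile-normalised luminescence on an arbitrary scale; higher means more cells surviving MMS.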 Names joined by + are all predicted targets of the reagent. Further read-outs or replicates are left out here.

Purpose: 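Genes required for cells to withstand methyl methanesulphonate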 (primary screen)
System: Drosophila Kc167 cells
Knock-down reagent: long dsRNA against Drosophila genes, about 0.25 µg dsRNA per well
Timing: about 6 days: 3 days knock-down, then 3 days with or without MMS
Conditions: methyl methanesulphonate 0.004% (w/v) for 3 days after knock-down
Detection: 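Viability in wells given MMS, read as ATP luminescence, normalised by quantiles plate by plate and averaged across replicates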
Reading the numbers: mean viability with MMS: higher = more surviving cells after MMS

target	dsRNA	mean viability with MMS
CG1847	DRSC19810	3.47e6
ATP8 (retired record)	DRSC21277	3.48e6
CG1971	DRSC15406	3.55e6
RfC4	DRSC08691	3.60e6
CG8301	DRSC16405	3.44e6
CG11294	DRSC17777	3.10e6
CG34231	DRSC05323	3.60e6
Etf-QO	DRSC06111	3.56e6
Fas1	DRSC16669	3.60e6
CG6441	DRSC02957	3.35e6
SKIP	DRSC14713	3.67e6
SKIP	DRSC14714	3.60e6
SKIP	DRSC15864	3.68e6
SKIP	DRSC16195	3.63e6
SKIP	DRSC16196	3.62e6
CtsL4	DRSC02849	3.69e6
CG42449	DRSC18084	3.67e6
Capr	DRSC10346	3.60e6
Fad2	DRSC11165	3.30e6
GATAd	DRSC02803	3.45e6
CG32809	DRSC18507	3.57e6
CG32809	DRSC18562	3.56e6
CG32809	DRSC18592	3.50e6
Bfc	DRSC08623	3.60e6
sls	DRSC08528	3.57e6
sls	DRSC08540	3.58e6
sls	DRSC08670	3.59e6
CG31142	DRSC13647	3.31e6
CG32762	DRSC18298	3.74e6
disco	DRSC20323	3.43e6
CG11674	DRSC19414	3.62e6
Ccdc58	DRSC10218	3.75e6
Prp39	DRSC15133	3.35e6
Noc1	DRSC10921	3.71e6
bwa	DRSC01749	3.48e6
bwa	DRSC02310	3.60e6
BomBc2	DRSC06502	3.56e6
Magi	DRSC04247	3.65e6
Magi	DRSC04451	3.33e6
CG31681	DRSC00107	3.61e6
PolE1	DRSC16112	3.36e6
Ir21a	DRSC00528	3.44e6
sbm	DRSC20185	3.53e6
CG17929	DRSC15291	3.51e6
CG6271	DRSC16006	3.59e6
CG12024	DRSC08229	3.56e6
CG34235 + CG30058 + CG34312	DRSC22142	3.61e6
Syx7	DRSC11763	3.60e6
CG13041	DRSC09922	3.51e6
CG15767	DRSC18073	3.47e6
scpr-A + scpr-C + scpr-B	DRSC15715	3.57e6
CG3961	DRSC10390	3.64e6
CG3961	DRSC10391	3.27e6
CG8128	DRSC20084	3.46e6
CG31826	DRSC03357	3.43e6
Inx7 + cm	DRSC18753	3.61e6
msi	DRSC17003	2.98e6
CG33125	DRSC00145	3.49e6
CG9205	DRSC08642	3.51e6
gogo	DRSC10070	3.43e6
gogo	DRSC10071	3.63e6
CG5103	DRSC10481	3.67e6
Peritrophin-A	DRSC20570	3.56e6
CG14417	DRSC18638	3.53e6
rngo	DRSC19903	1.83e6
CG13728	DRSC10056	3.52e6
Mal-B2	DRSC02417	1.90e6
Mf	DRSC16120	3.38e6
